# Source: patent US20180044406A1 (UNIVERSITY OF ROCHESTER, published 2018)
# Results are given in words; binding and its absence hold for the method and conditions named. Some entries that bind do so weakly or less than the wild type. Sequences can lack the tags named with a protein.
# T1: native Gmd of S. aureus (glucosaminidase of autolysin, in growing cultures of UAMS-1 / Xen29) (Staphylococcus aureus) (UniProt A7X0T9)
# T1 sequence: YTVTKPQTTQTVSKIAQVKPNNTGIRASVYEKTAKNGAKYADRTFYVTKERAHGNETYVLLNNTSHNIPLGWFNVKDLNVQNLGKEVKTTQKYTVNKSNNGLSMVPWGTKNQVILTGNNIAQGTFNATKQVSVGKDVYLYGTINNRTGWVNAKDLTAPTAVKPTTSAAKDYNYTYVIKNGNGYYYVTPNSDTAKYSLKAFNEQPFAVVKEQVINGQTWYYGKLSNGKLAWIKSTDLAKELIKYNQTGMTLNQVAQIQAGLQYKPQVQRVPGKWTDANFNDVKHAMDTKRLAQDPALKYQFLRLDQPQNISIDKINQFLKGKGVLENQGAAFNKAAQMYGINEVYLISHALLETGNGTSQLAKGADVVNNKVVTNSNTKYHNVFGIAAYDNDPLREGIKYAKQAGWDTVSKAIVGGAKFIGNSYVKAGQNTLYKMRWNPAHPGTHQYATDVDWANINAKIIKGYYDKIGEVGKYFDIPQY
# Biological target: T1, native Gmd of S. aureus (glucosaminidase of autolysin, in growing cultures of UAMS-1 / Xen29) (Staphylococcus aureus)
# Assay: inferred from effects on growing S. aureus cultures
binder,measurement,value
"monoclonal antibody 4A12 (mouse IgG1) (antibody, V domains shown) VH: QVQLQQPGAELVGPGTSVKLSCKSSGYTFTKYWMHWLKQRPGQGLEWIGVIDPSDSYTNYNQKFKGKATLTVDTSSSTAYLQLSSLTSEDSAVYYCANYYGSYYDVMDFWGQGTSVTVSS VL: DVQITQSPSYLAASPGETITINCRASKSISKYLAWYQEKPGKTNKLLICFGSTLQSGTPSRFSGSGSGTDFTLTISSLEPEDFATYYCQQHNEYPLTFGAGTKLELKR",binding,binds
"human:mouse chimeric 4A12 (h4A12) (antibody, V domains shown) VH: QVQLQQPGAELVGPGTSVKLSCKSSGYTFTKYWMHWLKQRPGQGLEWIGVIDPSDSYTNYNQKFKGKATLTVDTSSSTAYLQLSSLTSEDSAVYYCANYYGSYYDVMDFWGQGTSVTVSS VL: DVQITQSPSYLAASPGETITINCRASKSISKYLAWYQEKPGKTNKLLICFGSTLQSGTPSRFSGSGSGTDFTLTISSLEPEDFATYYCQQHNEYPLTFGAGTKLELKR",binding,binds
